# Primary screen of a compound library

The filed quantity is “Percent Effect” (%). How 0% and 100% were set is not recorded. Most values in the screen are low, and negative values occur. The compounds are a random part of those screened.

A: 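Whole-cell assay for inhibitors of Mycobacterium tuberculosis growth, labelled Cornell in the record; the read-out is not stated. The concentration is filed as 10 mM, unlikely as a test dose, so the dose is not known. Higher means stronger inhibition (inferred from two other growth screens of the library). Size under these conditions: about 53,000 compounds, about 900 of them at 50% or above in at least one test.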
B: 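Assay on Mycobacterium tuberculosis, filed only as a heat shock assay from Cornell; the read-out is not stated. The concentration is filed as 10 mM, unlikely as a test dose, so the dose is not known. The record gives no direction; compounds that gave an IC50 in retests scored well above the rest, so higher reads as stronger inhibition. Size under these conditions: about 69,000 compounds, about 930 of them at 50% or above in at least one test.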

Compound: Cc1cccc(C2CCCN(C(=O)CN3CCOC3=O)C2)c1 (stereo not drawn)
A: 13.65%
B: 15.31%

Compound: CCc1nc(-c2ccc(NC(=O)N3CCOCC3)cc2)no1
A: 34.06%
B: 12.04%

Compound: Cc1[nH]c(=O)[nH]c(=O)c1CN1CCCC(CCc2c(F)cccc2F)C1 (stereo not drawn)
B: 7.556%

Compound: CC(NCC1CCN(CCO)CC1)c1ccc(Cl)cc1 (stereo not drawn)
A: 26.25%
B: -22.33%

Compound: CCc1ccccc1OC1CN(C(=O)c2cccs2)C1
B: 44.22%

Compound: CN(C)C[C@@H]1CN(C2CCN(c3ccc(Cl)cc3)CC2)C[C@@H]1CO
A: 28.36%
B: 39.93%

Compound: Cc1cccnc1CNc1ccc(C(=O)N2CCc3ccccc32)cn1
A: 25.08%
B: 39.97%

Compound: Cc1nnsc1CNC(=O)CSCc1ccccc1Cl
A: -12.02%
B: -3.608%

Compound: O=C(Cc1cccc(O)c1)NCCCNC(=O)c1cccc(F)c1
A: -36.19%
B: -2.629%

Compound: O=C(CCc1ccncc1)NCCOc1ncc(Cl)cc1Cl
A: 20.55%
B: -11.28%

Compound: COCCn1cc(C(=O)N2CCCC2c2ccccc2C)ccc1=O (stereo not drawn)
A: 7.151%
B: 8.901%

Compound: Cc1ccc(-c2noc(C(C)(C)NS(C)(=O)=O)n2)cc1F
A: 5.956%
B: -1.121%

Compound: CCOc1ncccc1CNC(=O)NC1CCOc2ccccc21 (stereo not drawn)
A: -21.91%
B: -10.21%

Compound: COc1ccc(CNCC(C)Oc2ccccn2)cc1.Cl (stereo not drawn)
A: -7.08%
B: -11.53%

Compound: CC(C)c1ccc(-n2cc(O)c(C(=O)N3CCC(C(N)=O)CC3)n2)cc1
A: 13.78%
B: -2.501%

Compound: Cn1cc(CN2CCC(F)(F)C3(CCN(c4ncc(F)cn4)C3)C2)cn1.O=C(O)C(F)(F)F (stereo not drawn)
B: -35.15%

Compound: Cc1nn(C)c(N(C)C)c1CNCc1cccnc1OC(C)C
A: 14.71%
B: -3.52%

Compound: NC(=O)CN1CCCC1c1csc(Nc2cnccn2)n1 (stereo not drawn)
B: 58.45%

Compound: Cc1cn2c(n1)CCC(NC(=O)CCn1ccnn1)C2 (stereo not drawn)
A: 22.61%
B: 8.16%

Compound: Cc1cc(CN2CCOC(CN(C)c3cccnn3)C2)no1 (stereo not drawn)
B: -2.284%

Compound: CCN(CCNS(=O)(=O)N1CCOCC1)C(=O)OC(C)(C)C
B: -19.8%

Compound: Cc1ccc(-c2ccnc3cc(CC(=O)N4CCN(C)CC4)nn23)cc1
A: 13.45%
B: -5.479%

Compound: Cc1cnn(CC2CCCN2C(=O)CCCc2nc(C)no2)c1 (stereo not drawn)
A: -24.75%
B: -5.366%

Compound: COCCC1(C(=O)O)CCCN(CC(=O)NCCc2ccccc2)C1 (stereo not drawn)
A: 1.991%
B: -13.34%

Compound: CN1CCC(N(C)CCC(=O)N2CCC(CCc3ccccc3)CC2)C1 (stereo not drawn)
A: 4.642%
B: 24.05%

Compound: O=C(CN1CCCCC1Cn1cncn1)Nc1ccncc1 (stereo not drawn)
A: -10.76%
B: -9.468%

Compound: Cc1ccc(-c2nc(CC(=O)NCC3CCCOC3)cs2)o1 (stereo not drawn)
A: 28.96%
B: 8.596%

Compound: Cn1cnc(-c2nc(C(=O)NCC3CCCO3)c3ccccn23)c1 (stereo not drawn)
A: -14.1%
B: 18.64%

Compound: CS(=O)(=O)c1ccc(CN2CCCCC2c2ccc(F)cc2)cc1 (stereo not drawn)
A: 7.079%
B: 3.856%

Compound: CC(C)Cn1cnnc1C1CCCN1C(=O)c1ccc(F)cc1F (stereo not drawn)
A: -4.714%
B: 11.99%

Compound: COc1ncccc1C(=O)N1CCCC(n2ccnc2)C1 (stereo not drawn)
B: -12.07%

Compound: COc1ccc(Br)cc1Cn1nc(C(N)=O)ccc1=O
B: 2.997%

Compound: O=C(O)C(F)(F)F.[H][C@@]12CN(c3ccc(C)nn3)C[C@]1([H])OCCN2CC1CC1
A: -4.286%
B: 21.44%

Measurements from “University of Dundee, Small-Polar-MMV Screening Library” (2021), ChEMBL document CHEMBL3988442.